Measurements taken from the supplement of paper PMC12823440, “Inhibitors supercharge kinase turnover through native proteolytic circuits” (Nature, 2025).
Where a name gives a salt, the structure may show the parent alone. The list shows a part of the results. Hit calls seldom repeat between salt and free forms of one compound.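 Kinases, fused to nanoluciferase, were expressed in K562 cells; luminescence was measured every 4 h from 2 to 18 h as percent of control (DMSO = 100%, positive control = 0%). A time point is decreased if signal falls significantly (2 sigma). Hits were called by the authors by a rule that is not shown; the count of time points alone does not decide it.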

Amino acid sequences for entries named in this document (tags omitted). A change or cut given only in a name is not applied to a line headed by its entry.
UniProt P42356, whole entry, looked up: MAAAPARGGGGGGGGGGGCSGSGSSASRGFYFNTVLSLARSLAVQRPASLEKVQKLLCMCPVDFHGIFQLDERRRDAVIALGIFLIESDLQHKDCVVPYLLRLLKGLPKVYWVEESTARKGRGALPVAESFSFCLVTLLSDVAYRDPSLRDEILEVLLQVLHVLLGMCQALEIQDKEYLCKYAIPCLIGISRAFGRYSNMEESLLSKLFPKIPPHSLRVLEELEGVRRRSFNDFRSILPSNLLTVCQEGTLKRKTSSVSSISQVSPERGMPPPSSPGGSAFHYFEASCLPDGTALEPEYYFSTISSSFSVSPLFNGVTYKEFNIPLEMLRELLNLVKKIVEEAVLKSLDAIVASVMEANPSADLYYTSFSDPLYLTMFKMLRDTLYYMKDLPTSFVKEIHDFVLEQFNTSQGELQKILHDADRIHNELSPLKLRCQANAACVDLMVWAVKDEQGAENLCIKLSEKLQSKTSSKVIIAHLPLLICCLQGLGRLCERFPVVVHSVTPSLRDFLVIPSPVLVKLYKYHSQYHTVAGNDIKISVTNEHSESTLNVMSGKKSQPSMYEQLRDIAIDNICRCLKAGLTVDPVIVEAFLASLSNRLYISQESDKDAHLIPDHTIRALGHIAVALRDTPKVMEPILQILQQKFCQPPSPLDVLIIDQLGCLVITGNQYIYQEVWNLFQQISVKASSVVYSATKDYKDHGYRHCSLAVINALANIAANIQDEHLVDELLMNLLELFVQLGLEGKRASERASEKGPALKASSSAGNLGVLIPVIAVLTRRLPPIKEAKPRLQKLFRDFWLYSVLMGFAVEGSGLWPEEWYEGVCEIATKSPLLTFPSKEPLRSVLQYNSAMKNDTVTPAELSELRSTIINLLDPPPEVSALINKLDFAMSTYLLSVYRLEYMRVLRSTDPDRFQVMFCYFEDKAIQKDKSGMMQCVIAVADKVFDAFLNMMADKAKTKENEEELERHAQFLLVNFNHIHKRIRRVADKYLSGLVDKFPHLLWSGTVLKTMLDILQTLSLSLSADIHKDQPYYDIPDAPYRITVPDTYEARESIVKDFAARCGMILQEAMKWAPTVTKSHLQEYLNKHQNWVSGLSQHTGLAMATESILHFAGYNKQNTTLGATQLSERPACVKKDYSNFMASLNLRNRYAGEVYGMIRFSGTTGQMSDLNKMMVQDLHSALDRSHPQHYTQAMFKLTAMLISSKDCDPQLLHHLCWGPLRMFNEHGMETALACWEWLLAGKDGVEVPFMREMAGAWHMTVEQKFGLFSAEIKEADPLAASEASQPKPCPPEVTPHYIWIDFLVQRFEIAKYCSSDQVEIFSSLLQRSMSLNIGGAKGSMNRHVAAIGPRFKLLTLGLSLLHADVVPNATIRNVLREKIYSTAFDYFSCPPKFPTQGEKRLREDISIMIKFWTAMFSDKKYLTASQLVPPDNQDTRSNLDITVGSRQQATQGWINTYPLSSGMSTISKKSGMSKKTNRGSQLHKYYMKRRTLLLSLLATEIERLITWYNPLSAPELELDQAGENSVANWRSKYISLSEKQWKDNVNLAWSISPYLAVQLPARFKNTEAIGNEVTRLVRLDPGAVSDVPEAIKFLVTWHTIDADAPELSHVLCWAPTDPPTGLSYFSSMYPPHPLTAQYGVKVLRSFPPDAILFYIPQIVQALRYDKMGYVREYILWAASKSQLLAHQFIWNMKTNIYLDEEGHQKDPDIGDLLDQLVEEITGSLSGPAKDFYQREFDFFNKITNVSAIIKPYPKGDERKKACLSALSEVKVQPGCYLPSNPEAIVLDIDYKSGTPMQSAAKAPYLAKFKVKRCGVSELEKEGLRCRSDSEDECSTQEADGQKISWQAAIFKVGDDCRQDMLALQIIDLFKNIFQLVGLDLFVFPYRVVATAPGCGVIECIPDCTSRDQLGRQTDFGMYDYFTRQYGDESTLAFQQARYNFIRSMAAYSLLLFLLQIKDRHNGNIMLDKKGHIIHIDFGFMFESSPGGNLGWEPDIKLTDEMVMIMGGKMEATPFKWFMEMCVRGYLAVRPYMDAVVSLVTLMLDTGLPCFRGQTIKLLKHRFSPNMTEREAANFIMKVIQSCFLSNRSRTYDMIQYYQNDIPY
UniProt Q9UBF8: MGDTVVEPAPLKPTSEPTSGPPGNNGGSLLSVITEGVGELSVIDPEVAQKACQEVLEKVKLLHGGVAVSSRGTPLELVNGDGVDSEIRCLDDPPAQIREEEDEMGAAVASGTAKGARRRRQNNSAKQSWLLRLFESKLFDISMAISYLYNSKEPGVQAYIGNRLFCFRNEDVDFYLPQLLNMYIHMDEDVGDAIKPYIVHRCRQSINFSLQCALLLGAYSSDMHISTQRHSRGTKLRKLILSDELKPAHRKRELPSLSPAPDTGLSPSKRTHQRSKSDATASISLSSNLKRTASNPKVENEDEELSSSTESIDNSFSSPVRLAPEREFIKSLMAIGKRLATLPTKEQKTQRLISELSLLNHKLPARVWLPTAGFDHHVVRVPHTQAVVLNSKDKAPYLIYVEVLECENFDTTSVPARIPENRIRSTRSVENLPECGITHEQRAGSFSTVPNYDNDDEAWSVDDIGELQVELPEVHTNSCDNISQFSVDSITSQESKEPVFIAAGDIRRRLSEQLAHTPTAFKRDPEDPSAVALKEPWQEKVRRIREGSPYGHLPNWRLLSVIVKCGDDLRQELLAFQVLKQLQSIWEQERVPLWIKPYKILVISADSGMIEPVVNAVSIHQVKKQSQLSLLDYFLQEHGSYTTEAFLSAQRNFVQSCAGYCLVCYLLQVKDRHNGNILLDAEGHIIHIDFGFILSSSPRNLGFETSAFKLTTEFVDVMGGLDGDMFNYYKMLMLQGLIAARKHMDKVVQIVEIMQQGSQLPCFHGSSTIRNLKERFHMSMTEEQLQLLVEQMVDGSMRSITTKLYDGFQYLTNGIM
UniProt P53350, whole entry: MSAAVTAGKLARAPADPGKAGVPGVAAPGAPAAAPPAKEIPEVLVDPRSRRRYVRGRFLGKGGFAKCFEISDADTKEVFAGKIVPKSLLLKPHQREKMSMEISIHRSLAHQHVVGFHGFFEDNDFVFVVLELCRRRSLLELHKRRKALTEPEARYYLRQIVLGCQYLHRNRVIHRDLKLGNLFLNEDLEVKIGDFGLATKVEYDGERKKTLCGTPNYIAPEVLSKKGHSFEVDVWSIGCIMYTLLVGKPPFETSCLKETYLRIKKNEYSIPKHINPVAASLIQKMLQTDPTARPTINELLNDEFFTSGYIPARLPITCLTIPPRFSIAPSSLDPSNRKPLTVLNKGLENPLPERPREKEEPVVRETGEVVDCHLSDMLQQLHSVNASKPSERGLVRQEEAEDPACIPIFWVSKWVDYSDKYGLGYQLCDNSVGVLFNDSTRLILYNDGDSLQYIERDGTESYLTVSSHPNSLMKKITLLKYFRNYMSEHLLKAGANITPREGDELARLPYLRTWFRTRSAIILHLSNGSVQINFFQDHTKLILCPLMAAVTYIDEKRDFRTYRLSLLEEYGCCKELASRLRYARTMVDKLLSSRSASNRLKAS
UniProt Q13131: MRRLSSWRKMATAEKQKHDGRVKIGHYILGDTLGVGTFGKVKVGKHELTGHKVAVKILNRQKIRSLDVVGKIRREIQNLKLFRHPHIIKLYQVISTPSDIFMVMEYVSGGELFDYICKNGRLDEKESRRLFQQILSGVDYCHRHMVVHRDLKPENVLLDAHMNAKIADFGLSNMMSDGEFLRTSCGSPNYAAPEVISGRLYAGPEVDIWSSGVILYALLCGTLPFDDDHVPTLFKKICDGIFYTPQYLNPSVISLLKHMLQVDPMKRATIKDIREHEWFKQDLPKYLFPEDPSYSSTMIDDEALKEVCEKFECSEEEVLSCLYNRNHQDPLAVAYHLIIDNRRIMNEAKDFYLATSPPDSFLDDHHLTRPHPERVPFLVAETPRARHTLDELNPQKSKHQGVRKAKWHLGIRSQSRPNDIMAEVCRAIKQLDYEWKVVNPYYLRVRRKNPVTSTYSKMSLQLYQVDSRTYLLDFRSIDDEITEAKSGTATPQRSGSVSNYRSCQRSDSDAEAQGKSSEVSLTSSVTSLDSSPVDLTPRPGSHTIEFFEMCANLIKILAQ
UniProt Q05397, whole entry, looked up: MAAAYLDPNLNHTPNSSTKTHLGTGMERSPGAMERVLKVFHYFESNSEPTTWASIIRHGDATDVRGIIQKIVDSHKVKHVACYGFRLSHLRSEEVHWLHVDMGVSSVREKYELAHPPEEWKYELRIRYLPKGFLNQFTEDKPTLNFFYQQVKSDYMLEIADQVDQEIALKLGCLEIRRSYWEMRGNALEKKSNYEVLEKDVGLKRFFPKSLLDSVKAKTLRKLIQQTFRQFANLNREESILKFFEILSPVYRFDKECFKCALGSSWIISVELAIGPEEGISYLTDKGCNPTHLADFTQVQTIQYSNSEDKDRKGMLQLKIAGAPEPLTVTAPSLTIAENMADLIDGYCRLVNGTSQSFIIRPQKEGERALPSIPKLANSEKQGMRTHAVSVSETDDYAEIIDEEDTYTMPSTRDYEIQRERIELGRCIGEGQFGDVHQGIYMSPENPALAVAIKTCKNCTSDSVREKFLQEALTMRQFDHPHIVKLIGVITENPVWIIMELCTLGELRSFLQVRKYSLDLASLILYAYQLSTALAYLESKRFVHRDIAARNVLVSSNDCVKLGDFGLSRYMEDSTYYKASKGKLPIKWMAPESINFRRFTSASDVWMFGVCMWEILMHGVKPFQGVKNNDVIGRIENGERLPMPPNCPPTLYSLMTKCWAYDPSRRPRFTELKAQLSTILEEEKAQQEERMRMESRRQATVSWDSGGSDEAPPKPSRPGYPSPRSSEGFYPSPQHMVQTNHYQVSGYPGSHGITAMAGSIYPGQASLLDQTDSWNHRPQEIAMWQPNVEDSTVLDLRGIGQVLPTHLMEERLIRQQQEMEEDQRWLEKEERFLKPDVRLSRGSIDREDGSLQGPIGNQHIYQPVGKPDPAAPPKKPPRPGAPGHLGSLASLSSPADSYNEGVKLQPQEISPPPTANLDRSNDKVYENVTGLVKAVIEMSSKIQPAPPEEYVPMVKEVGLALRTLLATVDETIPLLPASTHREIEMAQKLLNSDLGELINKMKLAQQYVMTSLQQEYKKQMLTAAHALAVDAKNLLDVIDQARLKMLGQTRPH
UniProt Q13546: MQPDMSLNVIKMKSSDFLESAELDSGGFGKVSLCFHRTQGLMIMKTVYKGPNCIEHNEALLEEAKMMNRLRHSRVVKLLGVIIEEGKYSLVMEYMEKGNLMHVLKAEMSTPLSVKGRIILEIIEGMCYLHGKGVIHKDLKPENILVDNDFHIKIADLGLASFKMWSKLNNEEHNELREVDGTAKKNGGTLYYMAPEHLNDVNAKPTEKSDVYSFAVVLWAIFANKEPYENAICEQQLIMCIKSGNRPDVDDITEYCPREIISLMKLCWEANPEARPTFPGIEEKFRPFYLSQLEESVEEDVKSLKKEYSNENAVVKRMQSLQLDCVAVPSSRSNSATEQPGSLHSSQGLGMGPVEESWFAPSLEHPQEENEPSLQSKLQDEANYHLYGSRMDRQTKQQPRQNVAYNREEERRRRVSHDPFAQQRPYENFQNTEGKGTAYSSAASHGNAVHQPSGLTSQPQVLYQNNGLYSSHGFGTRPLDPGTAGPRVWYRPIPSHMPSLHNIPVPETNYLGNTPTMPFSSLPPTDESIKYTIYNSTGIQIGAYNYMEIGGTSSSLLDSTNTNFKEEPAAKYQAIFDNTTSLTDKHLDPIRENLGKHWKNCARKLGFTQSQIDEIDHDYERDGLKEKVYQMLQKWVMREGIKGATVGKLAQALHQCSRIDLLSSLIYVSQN
UniProt Q9NYA1, whole entry: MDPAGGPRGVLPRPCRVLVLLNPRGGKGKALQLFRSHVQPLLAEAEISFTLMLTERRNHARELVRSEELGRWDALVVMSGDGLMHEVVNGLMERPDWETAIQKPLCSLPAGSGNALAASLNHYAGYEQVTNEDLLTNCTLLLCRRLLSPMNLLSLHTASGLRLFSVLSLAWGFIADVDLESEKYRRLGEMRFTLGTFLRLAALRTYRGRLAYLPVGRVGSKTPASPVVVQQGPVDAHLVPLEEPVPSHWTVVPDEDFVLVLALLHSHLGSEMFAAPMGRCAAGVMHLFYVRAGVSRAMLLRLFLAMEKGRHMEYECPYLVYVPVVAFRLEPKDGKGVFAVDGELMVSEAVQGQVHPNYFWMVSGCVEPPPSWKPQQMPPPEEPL

Experiments:
Assay in all cases: kinase-Nluc reporter destabilization hit call (1 = scored as downregulated) (binary); higher = compound decreases kinase abundance
Settings in all cases: K562; 2-18 h
PDPK1 = PDPK1 (UniProt O15530)
PIK4CA = PIK4CA (UniProt P42356)
PIK4CB = PIK4CB (UniProt Q9UBF8)
PLK1 = PLK1 (UniProt P53350)
PRKAA1 = PRKAA1 (UniProt Q13131)
PRKCA = PRKCA (UniProt P17252)
PTK2 = PTK2 (UniProt Q05397)
PTK2B = PTK2B (UniProt Q14289)
RAF1 = RAF1 (UniProt P04049)
[1] = target: RAF1_S257L (clone: RAF1_mut) (UniProt P04049)
RET = RET (UniProt P07949)
[2] = target: RET_M918T (clone: RET_mut) (UniProt P07949)
RIOK1 = RIOK1 (UniProt Q9BRS2)
RIPK1 = RIPK1 (UniProt Q13546)
RIPK2 = RIPK2 (UniProt O43353)
ROR2 = ROR2 (UniProt Q01974)
RPS6KA1 = RPS6KA1 (UniProt Q15418)
SPHK1 = SPHK1 (UniProt Q9NYA1)
SRC = SRC (UniProt P12931)
STK24 = STK24 (UniProt Q9Y6E0)

SMILES	kinase-Nluc reporter destabilization hit call (PDPK1)	kinase-Nluc reporter destabilization hit call (PIK4CA)	kinase-Nluc reporter destabilization hit call (PIK4CB)	kinase-Nluc reporter destabilization hit call (PLK1)	kinase-Nluc reporter destabilization hit call (PRKAA1)	kinase-Nluc reporter destabilization hit call (PRKCA)	kinase-Nluc reporter destabilization hit call (PTK2)	kinase-Nluc reporter destabilization hit call (PTK2B)	kinase-Nluc reporter destabilization hit call (RAF1)	kinase-Nluc reporter destabilization hit call [1]	kinase-Nluc reporter destabilization hit call (RET)	kinase-Nluc reporter destabilization hit call [2]	kinase-Nluc reporter destabilization hit call (RIOK1)	kinase-Nluc reporter destabilization hit call (RIPK1)	kinase-Nluc reporter destabilization hit call (RIPK2)	kinase-Nluc reporter destabilization hit call (ROR2)	kinase-Nluc reporter destabilization hit call (RPS6KA1)	kinase-Nluc reporter destabilization hit call (SPHK1)	kinase-Nluc reporter destabilization hit call (SRC)	kinase-Nluc reporter destabilization hit call (STK24)
CCN1CCC(n2cc(CNc3cc(Cl)c4ncc(C#N)c(Nc5ccc(F)c(Cl)c5)c4c3)nn2)CC1 [Cot inhibitor-2] (2.5 µM)	inactive: 0	inactive: 0	inactive: 0	inactive: 0	inactive: 0	inactive: 0	inactive: 0	inactive: 0	inactive: 0	inactive: 0	inactive: 0	inactive: 0	inactive: 0	inactive: 0	inactive: 0	inactive: 0	inactive: 0	inactive: 0	inactive: 0	inactive: 0
C=CC(=O)Nc1ccc(CN2C(=O)N(c3cc(OC)cc(OC)c3)Cc3cnc(Nc4ccc(N5CCN(C)CC5)cc4)nc32)cc1 (2.5 µM)	inactive: 0	inactive: 0	inactive: 0	inactive: 0	inactive: 0	inactive: 0	inactive: 0	inactive: 0	inactive: 0	inactive: 0	inactive: 0	inactive: 0	inactive: 0	inactive: 0	inactive: 0	inactive: 0	inactive: 0	inactive: 0	inactive: 0	inactive: 0
CC1=C(C(=O)O)N2C(=O)[C@@H](NC(=O)[C@H](N)C3=CCC=CC3)[C@H]2SC1 [Cephradine] (10 µM)	inactive: 0	inactive: 0	inactive: 0	inactive: 0	inactive: 0	inactive: 0	inactive: 0	inactive: 0	inactive: 0	inactive: 0	inactive: 0	inactive: 0	inactive: 0	inactive: 0	inactive: 0	inactive: 0	inactive: 0	inactive: 0	inactive: 0	inactive: 0
Cc1ccc2nc(NCCN)c3ncc(C)n3c2c1 (2.5 µM)	inactive: 0	inactive: 0	inactive: 0	inactive: 0	inactive: 0	inactive: 0	inactive: 0	inactive: 0	inactive: 0	inactive: 0	inactive: 0	inactive: 0	inactive: 0	inactive: 0	inactive: 0	inactive: 0	inactive: 0	inactive: 0	inactive: 0	inactive: 0
O=C(NOCC(O)CO)c1cc(Br)c(F)c(F)c1Nc1ccc(I)cc1F (stereo not given) (2.5 µM)	inactive: 0	inactive: 0	inactive: 0	inactive: 0	inactive: 0	inactive: 0	inactive: 0	inactive: 0	inactive: 0	inactive: 0	inactive: 0	inactive: 0	inactive: 0	inactive: 0	inactive: 0	inactive: 0	inactive: 0	inactive: 0	inactive: 0	inactive: 0
NS(=O)(=O)c1ccc(-n2nc(C(F)(F)F)cc2-c2ccc(Cl)cc2)cc1 (10 µM)	inactive: 0	inactive: 0	inactive: 0	inactive: 0	inactive: 0	inactive: 0	inactive: 0	inactive: 0	inactive: 0	inactive: 0	inactive: 0	inactive: 0	inactive: 0	inactive: 0	inactive: 0	inactive: 0	inactive: 0	inactive: 0	inactive: 0	inactive: 0
CN(C)C(=O)Cn1cc(-c2ccc(-c3cncc4ccccc34)cc2)cn1 (10 µM)	inactive: 0	inactive: 0	inactive: 0	inactive: 0	inactive: 0	inactive: 0	inactive: 0	inactive: 0	inactive: 0	inactive: 0	inactive: 0	inactive: 0	inactive: 0	inactive: 0	inactive: 0	inactive: 0	inactive: 0	inactive: 0	inactive: 0	inactive: 0
O=Nc1c(-c2c(O)[nH]c3ccc(F)cc23)[nH]c2ccccc12 [5'-Fluoroindirubinoxime] (10 µM)	inactive: 0	inactive: 0	inactive: 0	inactive: 0	inactive: 0	inactive: 0	inactive: 0	inactive: 0	inactive: 0	inactive: 0	active: 1	active: 1	inactive: 0	inactive: 0	inactive: 0	inactive: 0	inactive: 0	inactive: 0	inactive: 0	inactive: 0
Nc1ncnc2c1c(-c1cccc(OCc3ccccc3)c1)cn2C1CC(CN2CCC2)C1 (stereo not given) (2.5 µM)	inactive: 0	inactive: 0	inactive: 0	inactive: 0	inactive: 0	inactive: 0	inactive: 0	inactive: 0	inactive: 0	inactive: 0	inactive: 0	inactive: 0	inactive: 0	inactive: 0	inactive: 0	inactive: 0	inactive: 0	inactive: 0	inactive: 0	inactive: 0
Nc1ccc(-c2cnc(N)c(-c3ccc(Cl)cc3)c2)cn1 (10 µM)	inactive: 0	inactive: 0	inactive: 0	inactive: 0	inactive: 0	inactive: 0	inactive: 0	inactive: 0	inactive: 0	inactive: 0	inactive: 0	inactive: 0	inactive: 0	inactive: 0	inactive: 0	inactive: 0	inactive: 0	inactive: 0	inactive: 0	inactive: 0
Nc1nc2ccc(Cl)cc2c2nc(-c3ccco3)nn12 (10 µM)	inactive: 0	inactive: 0	inactive: 0	inactive: 0	inactive: 0	inactive: 0	inactive: 0	inactive: 0	inactive: 0	inactive: 0	inactive: 0	inactive: 0	inactive: 0	inactive: 0	inactive: 0	inactive: 0	inactive: 0	inactive: 0	inactive: 0	inactive: 0
Cc1ccccc1-n1c([C@H](C)Nc2nc(N)nc3nc[nH]c23)nc2cccc(C)c2c1=O [CAL-130 (Hydrochloride)] (10 µM)	inactive: 0	inactive: 0	inactive: 0	inactive: 0	inactive: 0	inactive: 0	inactive: 0	inactive: 0	inactive: 0	inactive: 0	inactive: 0	inactive: 0	inactive: 0	inactive: 0	inactive: 0	inactive: 0	inactive: 0	inactive: 0	inactive: 0	inactive: 0
Cc1cc(O)c2c(c1)C(=O)c1cc(O)cc(O)c1C2=O [Emodin] (10 µM)	inactive: 0	inactive: 0	inactive: 0	inactive: 0	inactive: 0	inactive: 0	inactive: 0	inactive: 0	inactive: 0	inactive: 0	inactive: 0	inactive: 0	inactive: 0	inactive: 0	inactive: 0	inactive: 0	inactive: 0	inactive: 0	inactive: 0	inactive: 0
COc1cc(Nc2ncc(F)c(Nc3ccc4c(n3)N(COP(=O)(O)O)C(=O)C(C)(C)O4)n2)cc(OC)c1OC [Fostamatinib Disodium] (10 µM)	inactive: 0	inactive: 0	inactive: 0	inactive: 0	inactive: 0	inactive: 0	inactive: 0	inactive: 0	inactive: 0	inactive: 0	inactive: 0	inactive: 0	inactive: 0	inactive: 0	inactive: 0	inactive: 0	inactive: 0	inactive: 0	inactive: 0	inactive: 0
CN1C(=O)N[C@H](Cc2c[nH]c3c(Cl)cccc23)C1=O [Necrostatin 2] (10 µM)	inactive: 0	inactive: 0	inactive: 0	inactive: 0	inactive: 0	inactive: 0	inactive: 0	inactive: 0	inactive: 0	inactive: 0	inactive: 0	inactive: 0	inactive: 0	inactive: 0	inactive: 0	inactive: 0	inactive: 0	inactive: 0	inactive: 0	inactive: 0
O=C(Nc1cn[nH]c1-c1ccccn1)c1nn(C2CCNCC2)cc1Cl (10 µM)	inactive: 0	inactive: 0	inactive: 0	inactive: 0	inactive: 0	inactive: 0	inactive: 0	inactive: 0	inactive: 0	inactive: 0	inactive: 0	inactive: 0	inactive: 0	inactive: 0	inactive: 0	inactive: 0	inactive: 0	inactive: 0	inactive: 0	inactive: 0
NC(=O)c1nc(Nc2ccccc2)sc1NC(=O)C1CCCCC1 (10 µM)	inactive: 0	inactive: 0	inactive: 0	inactive: 0	inactive: 0	inactive: 0	inactive: 0	inactive: 0	inactive: 0	inactive: 0	inactive: 0	inactive: 0	inactive: 0	inactive: 0	inactive: 0	inactive: 0	inactive: 0	inactive: 0	inactive: 0	inactive: 0
COc1cc(OC2CCN(C)CC2)ccc1Nc1ncc2c(n1)n(C1CCCC1)c(=O)n2C (10 µM)	inactive: 0	inactive: 0	inactive: 0	inactive: 0	inactive: 0	inactive: 0	inactive: 0	inactive: 0	inactive: 0	inactive: 0	inactive: 0	inactive: 0	inactive: 0	inactive: 0	inactive: 0	inactive: 0	inactive: 0	inactive: 0	inactive: 0	inactive: 0

Individual results from the list.
In kinase-Nluc reporter destabilization hit call [1], `Nc1ccc(-c2cnc(N)c(-c3ccc(Cl)cc3)c2)cn1` (10 µM) has inactive: 0
In kinase-Nluc reporter destabilization hit call [1], `CN1C(=O)N[C@H](Cc2c[nH]c3c(Cl)cccc23)C1=O` [Necrostatin 2] (10 µM) has inactive: 0
